PubChem BioAssay AID1259308 | NCATS, 2017
In all, the deposit lists about 59,000 reagents; this is a part drawn at random. Of all reagents, about 1,510 (2.6%) were called active. 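Calls use total luciferase alone and ignore viability, so some active siRNAs may act by altering cell number.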 The numbers tell different reagents against one gene apart. Further read-outs or replicates are left out here. Reagent sequences are not shown.

- Screen: 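Candidate targets for better recombinant protein yield in mammalian cells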 (primary screen)
- Cell system: human HEK293 embryonic kidney cells stably expressing firefly luciferase (HEK-CMV-Luc2-Hygro)
- Reagents: single siRNA against human genes, 0.8 pmol siRNA per well
- Duration: 72 h
- Measured: 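Reporter luminescence and viable-cell signal on separate replicate plates, given as percent of non-targeting control and median/MAD z-scores, plus per-cell luciferase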
- Reading the numbers: total luciferase, z-score and total luciferase, % of control: higher = more reporter protein produced
- Active means: 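An siRNA counts as active if its total luciferase robust z-score exceeds 3; genes with two or more such siRNAs out of three were retested with fresh siRNAs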
- Calls: active = raised luciferase; inactive = no rise

LRRC17 #1 | total luciferase, z-score = 1.08; total luciferase, % of control = 103; Outcome = inactive
LRRC17 #2 | total luciferase, z-score = -0.869; total luciferase, % of control = 64.6; Outcome = inactive
LRRC17 #3 | total luciferase, z-score = 0.488; total luciferase, % of control = 91.6; Outcome = inactive
TAAR6 #1 | total luciferase, z-score = 1.4; total luciferase, % of control = 110; Outcome = inactive
TAAR6 #2 | total luciferase, z-score = -0.983; total luciferase, % of control = 62.3; Outcome = inactive
TAAR6 #3 | total luciferase, z-score = -0.739; total luciferase, % of control = 67.2; Outcome = inactive
MRPS24 #1 | total luciferase, z-score = 0.836; total luciferase, % of control = 98.5; Outcome = inactive
MRPS24 #2 | total luciferase, z-score = -0.728; total luciferase, % of control = 67.4; Outcome = inactive
MRPS24 #3 | total luciferase, z-score = -0.196; total luciferase, % of control = 78; Outcome = inactive
HEPACAM2 #1 | total luciferase, z-score = -0.319; total luciferase, % of control = 75.5; Outcome = inactive
HEPACAM2 #2 | total luciferase, z-score = 0.757; total luciferase, % of control = 97; Outcome = inactive
HEPACAM2 #3 | total luciferase, z-score = 1.08; total luciferase, % of control = 103; Outcome = inactive
CSNK1G2-AS1 #1 | total luciferase, z-score = -0.14; total luciferase, % of control = 79.1; Outcome = inactive
CSNK1G2-AS1 #2 | total luciferase, z-score = -0.535; total luciferase, % of control = 71.2; Outcome = inactive
CSNK1G2-AS1 #3 | total luciferase, z-score = -0.268; total luciferase, % of control = 76.6; Outcome = inactive
AMELY #1 | total luciferase, z-score = 0.172; total luciferase, % of control = 85.3; Outcome = inactive
AMELY #2 | total luciferase, z-score = -0.185; total luciferase, % of control = 78.2; Outcome = inactive
AMELY #3 | total luciferase, z-score = 1.75; total luciferase, % of control = 117; Outcome = inactive
CEMP1 #1 | total luciferase, z-score = 3.83; total luciferase, % of control = 158; Outcome = active
CEMP1 #2 | total luciferase, z-score = 0.574; total luciferase, % of control = 93.3; Outcome = inactive
CEMP1 #3 | total luciferase, z-score = 1.11; total luciferase, % of control = 104; Outcome = inactive

2 entries from above, showing only “total luciferase, z-score”.
TAAR6 #1	1.4
TAAR6 #2	-0.983
